Measured values reported in the RNAGym collection of RNA variant scans (doi:10.1126/science.aae0568).
This sample is rich in variants without activity.

B1: tRNA (parent)
chain: GUUCCGUUGGCGUAAUGGUAACGCGUCUCCCUCCUAAGGAGAAGACUGCGGGUUCGAGUCCCGUACGGAACG

Variants of: B1
Experiment: yeast fitness relative to wild type (ratio to wild type); higher = fitter; tRNA-Arg(CCU), competitive growth, 37 C, YPD
How it was run: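 For this measurement, the tRNA-Arg(CCU) gene was varied by chemical synthesis at a 3% per-site mutation rate across 69 sites, and each variant was placed at the native genomic locus in Saccharomyces cerevisiae. The pooled strains went through a 24-hour competition in YPD at 37°C in six parallel replicates, with amplicons from start and end populations read by 100-nucleotide paired-end sequencing. Darwinian fitness relative to wild type followed from the change in each genotype's frequency. Genotypes needed ≥ 100 starting reads, and estimates < 0.5 were set to 0.5.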
For A36G A43C G63U, the yeast fitness was ≤ 0.5. In the case of A36G A70G, the yeast fitness is reported as 0.914. Variant A36G C62G has a yeast fitness of 0.905. In the case of A36G G38C C62A G68A, the yeast fitness is reported as ≤ 0.5. For A36G G39A G56A, the yeast fitness was ≤ 0.5. Variant A36G G68C has a yeast fitness of 0.779. A36U A42C A43G U64C A70C gave a yeast fitness of 0.559. In the case of A36U A43C C49A, the yeast fitness is reported as ≤ 0.5. With A36U A45U C46A C66U A69U the yeast fitness was ≤ 0.5. For A36U A45U G52C A57U, the yeast fitness was ≤ 0.5. A36U A57G gave a yeast fitness of 0.582. With A36U A65G C66G G68A the yeast fitness was ≤ 0.5. With A36U C46U G48C the yeast fitness was ≤ 0.5. For A36U C55A, the yeast fitness was ≤ 0.5. Variant A36U C55U G56A has a yeast fitness of 0.864. A36U C60U showed a yeast fitness of 0.566. With A36U G38A C61U A70U the yeast fitness was ≤ 0.5. With A36U G39A C60G the yeast fitness was ≤ 0.5. In the case of A36U G39C A69C, the yeast fitness is reported as ≤ 0.5. Work on A36U G44C yielded a yeast fitness of 0.629. For A36U U53A A65U, the yeast fitness was ≤ 0.5. A36U U53G showed a yeast fitness of 0.544. With A37C A42C G44A U54A the yeast fitness was ≤ 0.5. With A37C A43C C55G C60U the yeast fitness was ≤ 0.5. Variant A37C A43U A69U has a yeast fitness of 0.738. For A37C A45U G67C G68A, the yeast fitness was ≤ 0.5. With A37C A70U the yeast fitness was 0.752. Work on A37C C46G A70C yielded a yeast fitness of 0.632. With A37C C49A the yeast fitness was 0.651. With A37C C49A C66U the yeast fitness was ≤ 0.5. In the case of A37C C49U G52A U53A, the yeast fitness is reported as ≤ 0.5. With A37C C55G G63A G68C the yeast fitness was ≤ 0.5. In the case of A37C G39C C66U, the yeast fitness is reported as ≤ 0.5. For A37C G51A, the yeast fitness was 0.605. In the case of A37C U47A G58A, the yeast fitness is reported as ≤ 0.5. With A37G A40G G63C the yeast fitness was ≤ 0.5. In the case of A37G A40U G48C G58A A70U, the yeast fitness is reported as ≤ 0.5. With A37G A42U C49G A57U the yeast fitness was ≤ 0.5. In the case of A37G A42U C62A A65C, the yeast fitness is reported as ≤ 0.5. In the case of A37G C49A G63C, the yeast fitness is reported as ≤ 0.5. With A37G C55A A70U the yeast fitness was ≤ 0.5. In the case of A37G C66A A69U, the yeast fitness is reported as ≤ 0.5. For A37G G39C C55G, the yeast fitness was ≤ 0.5. For A37G G44C U54C A57U G68C, the yeast fitness was ≤ 0.5. Work on A37G G58A yielded a yeast fitness of 0.976. For A37G U47A C55A G58C, the yeast fitness was ≤ 0.5. With A37G U47A G56A U59C C61G the yeast fitness was ≤ 0.5. Variant A37G U59A has a yeast fitness of 0.663. In the case of A37U A42G A45U A65U, the yeast fitness is reported as ≤ 0.5. For A37U A43U G50A, the yeast fitness was ≤ 0.5. In the case of A37U A65G C66A, the yeast fitness is reported as ≤ 0.5. For A37U C49A C66U, the yeast fitness was ≤ 0.5. For A37U C55A A69C, the yeast fitness was ≤ 0.5. In the case of A37U G51C G52A, the yeast fitness is reported as ≤ 0.5. In the case of A37U U47A G67C, the yeast fitness is reported as ≤ 0.5. In the case of G38A C61A A65U, the yeast fitness is reported as ≤ 0.5. G38A C62G gave a yeast fitness of 0.648. For G38A G51C C55A A70U, the yeast fitness was ≤ 0.5. With G38A G67U A70U the yeast fitness was ≤ 0.5. In the case of G38C A40U C60U U64A C66A G68A A69G, the yeast fitness is reported as ≤ 0.5. In the case of G38C A45C C46G G51C, the yeast fitness is reported as ≤ 0.5. With G38C C46A U59C G68A the yeast fitness was ≤ 0.5. With G38C C49G U53C the yeast fitness was ≤ 0.5. In the case of G38C C66U G67A, the yeast fitness is reported as ≤ 0.5. With G38C G41A G56C G63A the yeast fitness was ≤ 0.5. Work on G38C G44C C46A yielded a yeast fitness of 0.814. With G38C G56A C66G the yeast fitness was ≤ 0.5. With G38U A57C U64A the yeast fitness was ≤ 0.5. In the case of G39A A43C, the yeast fitness is reported as 0.796. With G39A G41C U47A G50C A57U the yeast fitness was ≤ 0.5. For G39A G51A U53A G63C, the yeast fitness was ≤ 0.5. G39A G52A gave a yeast fitness of 0.759. In the case of G39A G67A, the yeast fitness is reported as 0.769. For G39A U53G U64A, the yeast fitness was ≤ 0.5. G39C showed a yeast fitness of 0.93. Work on G39C A42G yielded a yeast fitness of 0.653. For G39C C49A G51A, the yeast fitness was ≤ 0.5. With G39C C49A U64G the yeast fitness was ≤ 0.5. With G39C C60G C62A the yeast fitness was ≤ 0.5. For G39C G63A A69C, the yeast fitness was ≤ 0.5. In the case of G39C U53A, the yeast fitness is reported as ≤ 0.5. With G39C U53C A65G C66G G68C the yeast fitness was ≤ 0.5. For G39U A40C C66A A69U, the yeast fitness was 0.642. With A40C A42U C66U the yeast fitness was ≤ 0.5. Work on A40C A43C yielded a yeast fitness of 1.04. In the case of A40C A57U G58A G67A, the yeast fitness is reported as ≤ 0.5. A40C C61U gave a yeast fitness of 0.799. In the case of A40C G41C A57C G58A, the yeast fitness is reported as ≤ 0.5. With A40G A42C C55U C60A the yeast fitness was ≤ 0.5. In the case of A40G A43U G50C A69U, the yeast fitness is reported as ≤ 0.5. For A40G A57U A65U, the yeast fitness was ≤ 0.5. With A40G C61G the yeast fitness was 0.628. With A40G G41C C55G the yeast fitness was ≤ 0.5. With A40G U47A C61U G68C the yeast fitness was ≤ 0.5. In the case of A40U A42C U53A, the yeast fitness is reported as ≤ 0.5. For A40U C61G G68C A70G, the yeast fitness was ≤ 0.5. In the case of A40U G67U, the yeast fitness is reported as 0.797. For A40U U47A U53C G58A A70C, the yeast fitness was ≤ 0.5. A40U U54A gave a yeast fitness of 0.576. With A40U U59A A70C the yeast fitness was ≤ 0.5. A40U U64C gave a yeast fitness of 1.08. For G41A A42G A57G, the yeast fitness was ≤ 0.5. In the case of G41A A43U A45G G56A, the yeast fitness is reported as ≤ 0.5. Work on G41A A70U yielded a yeast fitness of 0.977. For G41A C55G C66U, the yeast fitness was ≤ 0.5. With G41C A43C C66U the yeast fitness was ≤ 0.5. For G41C A57U U64C, the yeast fitness was ≤ 0.5. In the case of G41C G44A A57U, the yeast fitness is reported as ≤ 0.5. Work on G41C G44C C55A yielded a yeast fitness of 0.563. Work on G41C G48A yielded a yeast fitness of 0.981. With G41C G48C A69U the yeast fitness was 0.558. In the case of A42C A45C G68C, the yeast fitness is reported as ≤ 0.5. With A42C A45G G51A the yeast fitness was ≤ 0.5. For A42C A57C C61A, the yeast fitness was ≤ 0.5. For A42C A57G C60G, the yeast fitness was ≤ 0.5. For A42C C46G A65U, the yeast fitness was ≤ 0.5. With A42C C55G G68C the yeast fitness was ≤ 0.5. Work on A42C C62U C66U yielded a yeast fitness of 0.507. In the case of A42C G51A A65U, the yeast fitness is reported as ≤ 0.5. In the case of A42C U47A C49A G51U, the yeast fitness is reported as ≤ 0.5. With A42C U47C U54A G67C A69U the yeast fitness was ≤ 0.5. For A42C U53C C61A G68A, the yeast fitness was ≤ 0.5. Work on A42G A43U yielded a yeast fitness of 1.03. Variant A42G A57C has a yeast fitness of 0.7. For A42G C61A G63C, the yeast fitness was ≤ 0.5. With A42G G50C A57U the yeast fitness was ≤ 0.5. Work on A42G G51A yielded a yeast fitness of 0.822. With A42G G51U A57U the yeast fitness was ≤ 0.5. For A42U A43G G52C C60G, the yeast fitness was ≤ 0.5. For A42U A43U C60U A69U, the yeast fitness was ≤ 0.5. With A42U A57U G67C the yeast fitness was ≤ 0.5. A42U C46U A69C showed a yeast fitness of 0.9.
